PubChem BioAssay AID1259424 | University of Nebraska Medical Center | 2018

- Screen: 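Rank knockdowns across the genome by resemblance to the KSR1 depletion profile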 (primary screen)
- System: human HCT116 colon cancer cells
- Reagents: siRNA pool against human genes, 50 nM
- Measured: 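Six signature mRNAs by branched-DNA multiplex assay, scaled to two housekeeping genes and non-targeting median, log2; matched to mean KSR1 knockdown profile by Pearson correlation and euclidean distance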
- Reading the numbers: mean correlation with KSR1 profile and KSR1 correlation: higher = expression change more like KSR1 knockdown; mean distance from KSR1 profile: higher = expression change less like KSR1 knockdown
This is a random part of about 14,000 deposited reagents. 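Higher correlation or smaller distance means closer resemblance to KSR1 loss; control wells, including KSR1 knockdowns, recur on many plates.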 The numbers tell different reagents against one gene apart. Not stated in the record: the time to read-out.

mean correlation with KSR1 profile	mean distance from KSR1 profile	KSR1 correlation, replicate 1	KSR1 correlation, replicate 2	KSR1 correlation, replicate 3	gene	reagent
-0.175	3.21	-0.158	-0.138	-0.44	ATP5PB	1
-0.237	2.17	-0.186	-0.224	-0.119	CDIPT	1
0.0729	2.18	0.425	-0.163	-0.104	ARL2BP	1
-0.628	2.35	-0.485	-0.485	-0.811	CLDN14	1
-0.734	6.17	-0.218	-0.565	-0.0393	RNF111	1
0.375	2.1	0.487	0.233	0.903	HES1	1
-0.00518	1.35	0.15	-0.125	-0.134	BICRA	1
-0.0412	2.93	0.215	0.221	-0.46	MAPK12	1
-0.402	3.09	-0.7	-0.505	-0.308	DNAJC15	1
0.0764	1.2	-0.183	-0.0152	0.324	SH3BP5	1
-0.394	2.17	-0.549	-0.333	-0.382	PAFAH2	1
0.045	2.6	-0.0341	-0.0464	-0.0665	CRACR2A	1
-0.0869	2.2	0.00529	-0.482	0.405	LRRN2	1
-0.451	4.11	-0.494	-0.494	-0.254	SSPOP	1
-0.526	2.33	-0.688	-0.599	-0.432	ATPAF1	1
-0.105	2.53	-0.0111	0.0737	-0.293	ZNF613	1
-0.52	3.36	-0.441	-0.373	-0.689	CCNH	1
0.0633	3.17	0.345	-0.105	-0.474	EPHB2	1
-0.456	3.71	-0.467	-0.465	-0.41	PSMD12	1
0.389	3.24	0.405	0.35	0.179	CLPX	1
-0.271	3.37	-0.307	-0.0108	-0.395	E2F1	1
0.566	1.42	0.606	0.769	0.302	ZDHHC14	1
-0.402	1.85	-0.346	-0.606	-0.202	CFDP1	1
0.664	2.43	0.778	0.442	0.387	ZNF496	1
-0.061	3.04	0.0735	-0.0103	-0.353	COL17A1	1
-0.161	3.45	-0.293	-0.0382	-0.0629	ANKMY2	1
-0.579	1.95	-0.472	-0.589	-0.503	CDR1	1
0.313	2.33	0.338	0.347	0.447	MT-ND6	1
-0.372	3.67	-0.483	-0.441	-0.422	LRP11	1
0.167	2.08	0.191	0.151	0.147	RBBP7	1
0.0686	1.38	-0.132	0.316	-0.00709	NR0B2	1
-0.0781	2.42	-0.154	-0.331	-0.077	TEDC2	1
-0.246	1.85	-0.383	-0.32	-0.0783	OTOA	1
-0.086	2.96	-0.0543	-0.182	-0.0377	LY75	1
-0.658	3.03	-0.888	-0.436	-0.64	CDC73	1
0.41	0.862	0.476	0.277	0.409	SPINT1	1
0.15	2.79	0.0994	0.0536	0.172	ASXL3	1
-0.0429	1.8	-0.371	0.0445	0.231	SERPINA4	1
-0.19	1.99	-0.132	-0.292	-0.346	ASAP3	1
0.55	1.6	0.537	0.345	0.704	FOSB	1
0.0419	2.79	0.000211	-0.0241	-0.0495	DHX29	1
-0.384	3.23	-0.504	-0.217	-0.379	RASGRP3	1
-0.311	3.28	-0.108	-0.147	-0.431	NCSTN	1
-0.245	2.71	-0.209	-0.163	-0.484	LDLRAD4	1
0.17	1.04	0.225	0.569	0.161	IL26	1
0.403	1.64	0.59	0.245	0.201	TNFSF9	1
0.306	0.942	0.018	-0.362	0.142	FAM184B	1
-0.344	4.07	-0.401	-0.464	-0.243	NTAQ1	1
-0.019	1.54	0.125	-0.17	0.0829	SUPT7L	1
-0.783	3.18	-0.716	-0.727	-0.636	LUC7L3	1
0.236	1.24	0.28	0.302	-0.145	LUC7L3	2

Ordered by “KSR1 correlation, replicate 1” (highest first): 8 of the entries above.
mean correlation with KSR1 profile	mean distance from KSR1 profile	KSR1 correlation, replicate 1	KSR1 correlation, replicate 2	KSR1 correlation, replicate 3	gene	reagent
0.403	1.64	0.59	0.245	0.201	TNFSF9	1
0.236	1.24	0.28	0.302	-0.145	LUC7L3	2
0.17	1.04	0.225	0.569	0.161	IL26	1
-0.019	1.54	0.125	-0.17	0.0829	SUPT7L	1
0.306	0.942	0.018	-0.362	0.142	FAM184B	1
-0.245	2.71	-0.209	-0.163	-0.484	LDLRAD4	1
-0.344	4.07	-0.401	-0.464	-0.243	NTAQ1	1
-0.783	3.18	-0.716	-0.727	-0.636	LUC7L3	1
